Data from patent EP4541822A2.
These are yes or no findings as the source states them, for the method shown. Some binding calls cover weakened binding; strength is not graded here. Blank lines part the entries; values can stand above or below the binder they belong to.

Legend:
[1] = biological target: recombinant protein (SUM)5-TRAIL; assay: confocal imaging of SJSA-1 cells, (SIM)6 (Red) plus (SUM)5-TRAIL (Green), 100 nM each (Fig. 2B)
[2] = biological target: recombinant protein (SUM)5-TRAIL; assay: confocal imaging of SJSA-1 cells, (SIM)6-R4L (Red) plus (SUM)5-TRAIL (Green), 100 nM each (Fig. 2C)

binding [1]: binds
B1: multivalent domain (SIM)6 (protein)
chain: MKHHHHHHHENLYFQGAMSSKVDVIDLTIESSSDEEEDPPAKRGGSGGSGGSGGSKVDVIDLTIESSSDEEEDPPAKRGGSGGSGGSGGSKVDVIDLTIESSSDEEEDPPAKRGAMKGGSGGSGGSGGSMSSKVDVIDLTIESSSDEEEDPPAKRGGSVGSGGSGGSKVDVIDLTIESSSDEEEDPPAKRGGSGGSGGRGGSKVDVIDLTIESSSDEEEDPPAKRGAMRCWGGSGGSGGSGGSMG

binding [2]: binds
B2: recombinant protein (SIM)6-R4L (protein)
chain: MKHHHHHHHENLYFQGAMSSKVDVIDLTIESSSDEEEDPPAKRGGSGGSGGSGGSKVDVIDLTIESSSDEEEDPPAKRGGSGGSGGSGGSKVDVIDLTIESSSDEEEDPPAKRGAMKGGSGGSGGSGGSMSSKVDVIDLTIESSSDEEEDPPAKRGGSVGSGGSGGSKVDVIDLTIESSSDEEEDPPAKRGGSGGSGGRGGSKVDVIDLTIESSSDEEEDPPAKRGAMRCWGGSGGSGGSGGSMGMCYRKCRGGRRWCYQKCGGSGGSGGSGGS
